By UniProt entry, the sequences of proteins in these tests, tags left out. Where a name states a change or a piece, a line headed by the entry shows the natural chain unless it says otherwise.
UniProt Q9UNA4: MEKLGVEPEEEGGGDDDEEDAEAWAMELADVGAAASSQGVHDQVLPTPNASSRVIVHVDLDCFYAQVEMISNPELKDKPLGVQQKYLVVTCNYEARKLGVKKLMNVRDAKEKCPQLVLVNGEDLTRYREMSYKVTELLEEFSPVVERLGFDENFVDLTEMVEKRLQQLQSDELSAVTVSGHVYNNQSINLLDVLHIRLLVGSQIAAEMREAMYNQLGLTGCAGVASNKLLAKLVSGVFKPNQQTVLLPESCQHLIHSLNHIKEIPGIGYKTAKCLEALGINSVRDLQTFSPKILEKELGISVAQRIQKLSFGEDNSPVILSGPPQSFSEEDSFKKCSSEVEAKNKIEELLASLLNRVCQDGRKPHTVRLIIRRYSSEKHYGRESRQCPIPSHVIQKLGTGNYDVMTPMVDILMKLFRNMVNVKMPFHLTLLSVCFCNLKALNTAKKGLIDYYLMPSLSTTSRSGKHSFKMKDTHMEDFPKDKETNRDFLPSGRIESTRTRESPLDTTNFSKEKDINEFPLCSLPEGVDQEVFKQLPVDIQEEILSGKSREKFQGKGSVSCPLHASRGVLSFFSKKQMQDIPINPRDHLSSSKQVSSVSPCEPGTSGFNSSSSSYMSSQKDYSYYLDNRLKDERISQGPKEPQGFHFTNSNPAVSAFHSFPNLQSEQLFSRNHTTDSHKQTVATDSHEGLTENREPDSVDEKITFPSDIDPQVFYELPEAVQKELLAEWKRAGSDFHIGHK

About 4,000 (1%) of roughly 390,000 compounds were called active. Inconclusive results, whose numbers are uncertain, are shown with a selection of clear calls. The call rests on the fitted dose curve; in most records, active means well fitted inhibition curve with a large enough effect; inconclusive means small, poorly fitted or top-dose-only effect, or another doubt; inactive means no such curve, though single readings can be large or run the other way. Potencies beside an inconclusive call are fits to weak or partial responses and may not hold up.
Each molecule was assayed against DNA polymerase iota (Homo sapiens) (UniProt Q9UNA4) (assay: qHTS for Inhibitors of Polymerase Iota). Settings: Pol iota fluorescent replication assay, 10 min; series mostly up to 115 µM; activity, negative = inhibition: at the top concentration.
Procedure, shortened: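 Pol iota at 10 nM preincubated 15 min with compounds at room temperature; reaction started with fluorescent substrate, 50 nM final. Fluorescence read kinetically at 0 and 10 min; buffer-only wells as negative control.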
With `OCCN(Cc1ccccc1)Cc1ccc(Cl)cc1Cl` the Potency was inconclusive: 50.1 µM [inhibitor, partial curve, poor fit].
For `O=c1[nH]c2ccccc2nc1-c1ccc(Cl)cc1`, the “activity, negative = inhibition” value was inactive: 62.1%.
In the case of `COc1ccc2cc(CN(CC3CCCO3)S(=O)(=O)c3ccccc3)c(=O)[nH]c2c1` (stereo not drawn), the Potency is reported as inconclusive: 89.1 µM [inhibitor, single point].
In the case of `CCN1CCN(C(=O)c2sc3nc(C)nc(N4CCC(C)CC4)c3c2C)CC1`, the “activity, negative = inhibition” value is reported as inactive: 6.27%.
For `COc1ccc(-c2cc3ccccc3oc2=O)cc1NC(=O)c1ccc([N+](=O)[O-])o1`, the “activity, negative = inhibition” value was inactive: -3.75%.
With `CCC1=C(OC(=O)N(CC)CC)N2C(=O)OC(=NCC(=O)OC)[C@]2(Cc2ccccc2)[C@H]2C1=CC[C@H]1C(=O)N(CC(=O)OC)C(=O)[C@H]12` the Potency was inconclusive: 0.708 µM [inhibitor, full curve, poor fit].
In the case of `Cc1ccc(Cn2c(C(C)Nc3nc(-c4ccc(F)cc4)cs3)nc3cc(C(=O)NCCCO)ccc32)cc1` (stereo not drawn), the Potency is reported as inconclusive: 28.2 µM [inhibitor, single point].
For `CC1CCN(c2cc(N3CCOCC3)c([N+](=O)[O-])cc2F)CC1`, the Potency was inconclusive: 17.8 µM [inhibitor, partial curve, poor fit].
With `CN1CCN(CCCNC(=O)c2cnn(-c3ccccc3)c2-n2cccc2)CC1` the “activity, negative = inhibition” value was inactive: 41.8%.
`Oc1ccc(/C=N/N2CCCCC2)c(O)c1O` was tested, and the Potency was inconclusive: 15.8 µM [inhibitor, full curve, poor fit].
With `CCOC(=O)Nc1ccc2c(COC(=O)CNS(=O)(=O)c3ccc(NC(C)=O)cc3)cc(=O)oc2c1` the Potency was inconclusive: 31.6 µM [inhibitor, partial curve, poor fit].
`Cc1ccc(-c2csc(/C(C#N)=C/c3ccccc3Cl)n2)cc1` was tested, and the “activity, negative = inhibition” value was inactive: 9.97%.
In the case of `O=C(Nc1ccc(F)cc1)c1cccn1-c1nnc(N2CCCCC2)s1`, the Potency is reported as inconclusive: 89.1 µM [inhibitor, partial curve, poor fit].
`CCNC(=O)N1CCC(c2nc3ccccc3s2)CC1` was tested, and the Potency was inconclusive: 100 µM [inhibitor, single point].
`Cc1cc(/C=C(\C#N)C(=O)NCc2ccco2)c(C)n1-c1ccc(C(=O)O)cc1` was tested, and the Potency was active: 39.8 µM.
`Cn1c(CN2CCOCC2)nnc1SCC(=O)Nc1cc(Cl)ccc1Cl` was tested, and the Potency was inconclusive: 89.1 µM [inhibitor, partial curve, poor fit].
For `O=C(O)C1CC1C(=O)N1CCN(c2ccc(Cl)c(Cl)c2)CC1` (stereo not drawn), the “activity, negative = inhibition” value was inactive: 1.39%.
`Clc1ccc(SCCn2cncn2)cc1` was tested, and the Potency was inconclusive: 25.1 µM [inhibitor, partial curve, poor fit].
For `CC(=O)Nc1ccc2nc(NC(=O)c3cccnc3)sc2c1`, the Potency was inconclusive: 39.8 µM [inhibitor, single point].
With `COc1ccc(NC(=O)CSc2nc(C3CC3)nc3ccccc23)cc1` the Potency was inconclusive: 12.6 µM [inhibitor, partial curve, poor fit].
With `Cc1ccc(N(C)S(=O)(=O)c2ccc(-c3cc(C)no3)s2)cc1` the Potency was inconclusive: 63.1 µM [inhibitor, single point].
With `CCOC(=O)Cc1csc(NC(=O)c2sc3nc4cc(C)ccc4cc3c2N)n1` the “activity, negative = inhibition” value was inactive: -12.4%.
For `Cc1ccc(N=C2C(=O)Nc3ccc(Br)cc32)cc1`, the Potency was inconclusive: 28.2 µM [inhibitor, single point].
With `CN1C(=O)c2ccccc2Sc2ccc(NC(=O)N3CCN(c4ccccc4F)CC3)cc21` the Potency was inconclusive: 79.4 µM [inhibitor, single point].
`CCCOc1ccc(C(=O)Nc2cc(-c3nc4cc(C)cc(C)c4o3)ccc2C)cc1` was tested, and the Potency was inconclusive: 28.2 µM [inhibitor, partial curve, poor fit].
For `COc1cc2nc(CCc3nc4cc(OC)c(OC)cc4[nH]3)[nH]c2cc1OC`, the Potency was active: 2.51 µM.
`COc1ccc(/C=C(/C(=O)c2cccs2)N2C=CC=CC2=C(C#N)C#N)cc1` was tested, and the Potency was inconclusive: 14.1 µM [inhibitor, partial curve].
In the case of `Cc1ccc(-c2noc(-c3ccc(N4CCCCC4)c([N+](=O)[O-])c3)n2)cc1`, the Potency is reported as inconclusive: 100 µM [inhibitor, partial curve, poor fit].
With `Cc1nc(-c2ccc(O)c(O)c2)cs1` the “activity, negative = inhibition” value was inactive: 6.28%.
With `CCNC(=O)c1ccccc1-c1nc(-c2ccccc2Cl)no1` the Potency was inconclusive: 35.5 µM [inhibitor, single point].
In the case of `Clc1ccc(CCNC(c2nnc(-c3ccccc3)o2)c2ccccc2Cl)cc1` (stereo not drawn), the “activity, negative = inhibition” value is reported as inactive: 7.32%.
With `CC(C)(C)NS(=O)(=O)c1ccc(CCC(=O)NCc2ccco2)cc1` the “activity, negative = inhibition” value was inactive: 14.6%.
`O=C(Nc1ccccc1)C(c1ccccc1)C1CCCC1` (stereo not drawn) was tested, and the Potency was inconclusive: 89.1 µM [inhibitor, partial curve, poor fit].
For `Cc1cc(NC(=O)CSc2nnc(C3COc4ccccc4O3)n2N)no1` (stereo not drawn), the Potency was inconclusive: 25.1 µM [inhibitor, single point].
With `COc1ccc(OCC(=O)Nc2ccc3c(c2)nc(CCn2ccccc2=O)n3C)cc1` the Potency was active: 56.2 µM.
With `Cc1ccc(Cl)cc1NC(=O)C(C)n1nnc2sc3c(c2c1=O)CCCC3` (stereo not drawn) the “activity, negative = inhibition” value was inactive: 18.3%.
For `Cc1ccc(-n2[nH]c(C)c(/C=N/NC(=O)c3ccc(O)cc3O)c2=O)cc1`, the Potency was inconclusive: 5.62 µM [inhibitor, full curve, poor fit].
In the case of `COc1ccc(C(=O)NC2CCN(Cc3ccccc3)C2)cc1S(=O)(=O)N1CCOCC1` (stereo not drawn), the Potency is reported as inconclusive: 89.1 µM [inhibitor, partial curve, poor fit].
For `Cc1ccc(C(=O)Nn2cnnc2)cc1S(=O)(=O)N1CCOCC1`, the “activity, negative = inhibition” value was inactive: -19.7%.
With `CCCCn1c(=O)[nH]c(=O)c2c1nc(Cn1ncc(Cl)c(Cl)c1=O)n2CCC` the Potency was active: 25.1 µM.
For `CN(C)S(=O)(=O)c1cc(S(=O)(=O)N(C)C)c(Cl)cc1N`, the Potency was inconclusive: 112 µM [inhibitor, partial curve, poor fit].
Potency means the concentration at half of the fitted maximal effect.
